{"source": "paper PMC7822176", "about": "“Pursuing the Complexity of Alzheimer’s Disease: Discovery of Fluoren-9-Amines as Selective Butyrylcholinesterase Inhibitors and N-Methyl-D-Aspartate Receptor Antagonists” (Biomolecules, 2020)", "key": {"in vitro": {"test": "in vitro", "conditions": "human", "protocol": "(§1) The D3 assay evaluates the ability of compounds to diffuse from the donor compartment through the D3/hCMEC cell membrane into the acceptor compartment. The D3 cells were seeded on a PET membrane (area 1.12 cm^2) with 3-µm pores of the 12-well plates with 12-mm inserts. […] The donor solution (750 µL) was added to the donor compartment (insert), and the same volume of Opti-MEM was added into the acceptor. The concentration of the drug in both compartments was measured by UV-VIS spectrophotometry in 5, 15, 30, and 60 min of incubation in triplicates. The apparent permeability coefficient (Papp) was calculated from the concentration ratios. Tightness of the D3 monolayer was conducted by the fluorescein isothiocyanate (FITC) test after each experiment. […] (1) Papp= dC/dt × Vr/A × C0 • A: area of the well/cell monolayer, • dC/dt: amount in the receiver compartment in given time, • Vr: volume of the receiver compartment, and • C0: the initial concentration of tested compounds."}, "hCMEC/D3 cell monolayer": {"tested_on": "hCMEC/D3 cell monolayer", "test": "in vitro", "protocol": "as §1"}}}
{"smiles": "COc1cc2c(cc1OC)C(=O)C(CC1CCN(Cc3ccccc3)CC1)C2", "note": "(centres unmarked) [Donepezil]", "values": [{"measurement": "Papp", "setting": "in vitro", "value": "24.2 ± 2.83", "unit": "×10⁻⁶ cm/s"}, {"measurement": "CNS (+/−)", "setting": "hCMEC/D3 cell monolayer", "value": "CNS +"}]}
